These are yes or no findings as the source states them, for the method shown. Some binding calls cover weakened binding; strength is not graded here.
Legend:
GST-p300^1572-2370 [1] = target: GST-p300^1572-2370 (UniProt Q09472); assay: GST pull-down of in vitro translated protein
GST-p300^744-1571 [2] = target: GST-p300^744-1571 (UniProt Q09472); assay: GST pull-down of in vitro translated protein
GST-p300^1572-2370 [3] = target: GST-p300^1572-2370 (UniProt Q09472); assay: GST pull-down of in vitro translated protein, SDS-PAGE and autoradiography
GST-p300^744-1571 [4] = target: GST-p300^744-1571 (UniProt Q09472); assay: as above

By UniProt entry, the sequences of proteins in these tests, tags left out. Residues count along the entry.
GST-p300^744-1571 (Q09472, residues 744-1571): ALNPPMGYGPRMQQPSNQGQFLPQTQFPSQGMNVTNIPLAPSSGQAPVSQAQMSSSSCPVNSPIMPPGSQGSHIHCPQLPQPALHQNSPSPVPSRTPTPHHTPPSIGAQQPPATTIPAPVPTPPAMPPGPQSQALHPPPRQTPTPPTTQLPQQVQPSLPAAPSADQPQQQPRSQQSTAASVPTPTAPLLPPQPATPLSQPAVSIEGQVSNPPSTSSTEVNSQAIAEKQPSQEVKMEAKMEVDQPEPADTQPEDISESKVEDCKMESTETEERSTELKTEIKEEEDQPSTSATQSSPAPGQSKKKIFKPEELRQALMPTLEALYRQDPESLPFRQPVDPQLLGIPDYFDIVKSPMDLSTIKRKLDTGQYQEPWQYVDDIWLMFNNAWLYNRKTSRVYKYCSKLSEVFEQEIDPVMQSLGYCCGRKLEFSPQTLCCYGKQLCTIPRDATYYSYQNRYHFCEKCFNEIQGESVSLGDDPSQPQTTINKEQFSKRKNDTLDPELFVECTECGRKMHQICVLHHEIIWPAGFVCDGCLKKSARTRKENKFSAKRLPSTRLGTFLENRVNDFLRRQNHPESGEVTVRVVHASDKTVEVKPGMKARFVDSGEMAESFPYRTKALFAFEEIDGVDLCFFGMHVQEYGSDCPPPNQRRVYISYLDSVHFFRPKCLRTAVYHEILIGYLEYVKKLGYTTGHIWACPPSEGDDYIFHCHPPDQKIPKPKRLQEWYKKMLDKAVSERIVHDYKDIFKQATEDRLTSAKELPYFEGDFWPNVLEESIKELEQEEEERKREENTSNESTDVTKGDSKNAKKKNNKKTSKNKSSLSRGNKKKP
GST-p300^1572-2370 (Q09472, residues 1572-2370): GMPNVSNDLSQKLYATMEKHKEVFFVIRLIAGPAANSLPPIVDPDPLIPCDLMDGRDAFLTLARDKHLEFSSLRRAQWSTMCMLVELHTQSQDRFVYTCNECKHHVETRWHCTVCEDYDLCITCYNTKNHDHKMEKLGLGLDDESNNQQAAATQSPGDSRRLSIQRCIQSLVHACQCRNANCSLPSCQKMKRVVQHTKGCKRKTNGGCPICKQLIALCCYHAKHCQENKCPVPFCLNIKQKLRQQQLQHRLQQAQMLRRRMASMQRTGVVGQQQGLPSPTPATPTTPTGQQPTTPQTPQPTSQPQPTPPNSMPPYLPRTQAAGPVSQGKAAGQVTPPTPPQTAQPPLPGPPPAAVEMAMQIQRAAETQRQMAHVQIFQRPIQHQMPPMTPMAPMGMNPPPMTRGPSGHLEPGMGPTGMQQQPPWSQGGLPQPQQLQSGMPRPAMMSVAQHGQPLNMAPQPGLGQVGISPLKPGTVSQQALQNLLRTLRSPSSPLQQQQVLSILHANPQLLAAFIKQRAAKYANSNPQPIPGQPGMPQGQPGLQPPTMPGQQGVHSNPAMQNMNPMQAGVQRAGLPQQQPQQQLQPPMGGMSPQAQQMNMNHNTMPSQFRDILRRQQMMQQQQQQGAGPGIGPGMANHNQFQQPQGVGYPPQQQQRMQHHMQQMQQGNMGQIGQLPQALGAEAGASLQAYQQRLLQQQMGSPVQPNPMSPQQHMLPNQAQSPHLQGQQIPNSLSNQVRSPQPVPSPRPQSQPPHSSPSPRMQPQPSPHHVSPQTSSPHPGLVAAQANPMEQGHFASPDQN

Measured: binding

B1: JMY^335-588 (protein)
chain: ELLDKHKTIESMVELLDLYQMEDEAYSSLAEATTELYQYLLQPFRDMRELAMLRRQQIKISMENDYLGPRRIESLQKEDADWQRKAHMAVLSIQDLTVKYFEITAKAQKAVYDRMRADQKKFGKASWAAAAERMEKLQYAVSKETLQMMRAKEICLEQKKHALKEEMQSLQGGTEAIARLDQLESDYYDLQLQLYEVQFEILKCEELLLTAQLESIKRLISEKRDEVVYYDTYESMEAMLEKEEMAASVHAQRE
binds: all assays above
